Experimental data: PubChem BioAssay AID743454 (Peter MacCallum Cancer Centre, 2014)

Aim: 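Genes whose loss kills vorinostat-resistant colon cancer cells under vorinostat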 (primary screen)
Cells: human HCT116-VR colon cancer cells, selected for vorinostat resistance
Knock-down reagent: siRNA pool against human genes, 40 nM siRNA pool
Time to read-out: vorinostat for 24 h, read-out about 72 h after transfection
Treatment: vorinostat at 2.5 µM final
Detection: 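Two measures, CellTiter-Fluor viability and luminescent caspase 3/7 activity, each as fold change against same-plate mock wells, mean of duplicates, then screen-wide robust z-score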
Reading the numbers: viability robust z-score: higher = more viable cells than screen typical; caspase robust z-score: higher = more caspase 3/7 activity than screen typical
Active means: 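Hits are knock-downs in viability class RV1/RV2 or caspase class CA1/CA2, excluding ones that killed cells in the no-drug cell-count arm; hits then retested with single siRNAs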
This is a random part of about 18,000 reagents tested. Over the whole deposit, 450 (2.5%) are marked active. 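Single biological run; no consistent viability z cut-off exists, so the class columns, not z-scores, define the calls.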 Reagent sequences are not shown.

Target gene	viability hit class	caspase hit class	viability robust z-score	caspase robust z-score	Outcome
TULP4	no change	no change	1.12	-0.99	inactive
SLC43A3	no change	no change	0.2	-0.44	inactive
PPP2R5C	no change	no change	0.97	1.27	inactive
TACR3	no change	no change	0.48	0.34	inactive
C2CD4A	no change	no change	0.59	-0.37	inactive
GEMIN4	no change	no change	-0.68	-0.42	inactive
MAP9	no change	no change	2.43	0.2	inactive
FRMD5	no change	no change	-0.96	-0.52	inactive
KLHL8	no change	no change	0.06	3.23	inactive
MNX1	no change	no change	-0.88	0.78	inactive
ZNF608	no change	no change	-1.18	1.19	inactive
VARS1	no change	no change	-2.59	3.94	inactive
DIPK2B	no change	no change	-0.47	-0.84	inactive
CNIH2	no change	no change	0.18	0.08	inactive
GIMAP8	no change	no change	-0.67	-0.3	inactive
LMF2	no change	no change	-0.52	-0.45	inactive
CRACR2B	no change	no change	-0.23	3.53	inactive
PURA	no change	no change	0.12	-0.58	inactive
KLRC4	no change	no change	0.06	-0.79	inactive
CDC42	no change	no change	-0.3	1.15	inactive
SALL4	no change	no change	0.79	0.34	inactive
STAT1	no change	no change	0.23	1.61	inactive
SPMAP2	no change	CA1 (caspase activation)	-0.24	5.35	active
TLN1	no change	no change	1.57	-0.82	inactive
CCDC110	no change	no change	1.72	-0.34	inactive
MSI2	no change	no change	0.64	-0.54	inactive
PRB4	no change	no change	-0.7	-0.71	inactive
KCNH7	no change	no change	-1.9	1.19	inactive
SMUG1	no change	no change	-0.86	-0.35	inactive
MS4A1	no change	no change	0.33	-0.04	inactive
UBE2K	no change	no change	-1	0.47	inactive
CPN2	no change	no change	-0.36	-0.02	inactive
B3GNT5	no change	no change	0.56	-0.96	inactive
PSMA8	no change	no change	-0.39	-0.66	inactive
HSPD1	no change	no change	1.63	-0.18	inactive
ZNF408	no change	no change	0.74	2.22	inactive
ZFP2	no change	no change	1.84	-0.36	inactive
VLDLR	no change	no change	1.25	0.17	inactive
FRS2	no change	no change	-2.29	4.27	inactive
NSDHL	no change	no change	-1.54	2.24	inactive
LY6K	no change	no change	2.28	-0.08	inactive
ACRV1	no change	no change	0.83	1.94	inactive
PDXK	no change	no change	1.08	-0.84	inactive
CHIA	no change	no change	-0.18	-0.14	inactive
MAP6D1	no change	no change	-0.12	-0.09	inactive
MIEF1	no change	no change	-0.71	0.08	inactive
NUDT13	no change	no change	0.34	-0.49	inactive
ANAPC2	no change	no change	-0.06	0.2	inactive
ENOX2	no change	no change	-0.16	0.57	inactive
KIDINS220	no change	no change	0.64	-0.05	inactive
CCDC13	no change	no change	-0.42	3.86	inactive
VAMP4	no change	no change	-0.2	2.42	inactive
APOA4	no change	no change	0.93	2.08	inactive
IL7R	no change	no change	0.74	-0.16	inactive
LHX6	no change	no change	-0.62	0.78	inactive
SLC12A9	no change	no change	-0.72	2.51	inactive
TMEM89	no change	no change	-3.73	0.18	inactive

Reprinted from the entries so far for reference:
Target gene	viability hit class	caspase hit class	viability robust z-score	caspase robust z-score	Outcome
SLC43A3	no change	no change	0.2	-0.44	inactive
PPP2R5C	no change	no change	0.97	1.27	inactive
TACR3	no change	no change	0.48	0.34	inactive
C2CD4A	no change	no change	0.59	-0.37	inactive
GEMIN4	no change	no change	-0.68	-0.42	inactive
